# PubChem BioAssay AID743454 – Peter MacCallum Cancer Centre – 2014
# Screen: 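Genes whose loss kills vorinostat-resistant colon cancer cells under vorinostat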 (primary screen)
# Cell system: human HCT116-VR colon cancer cells, selected for vorinostat resistance
# Reagent: siRNA pool against human genes, 40 nM siRNA pool
# Time to read-out: vorinostat for 24 h, read-out about 72 h after transfection
# Conditions: vorinostat at 2.5 µM final
# Read-out: 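Cell viability by CellTiter-Fluor and caspase 3/7 activity by luminescence, each scaled to mock wells per plate, duplicates averaged, then robust z-scored over all plates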
# Reading the numbers: viability robust z-score: higher = more viable cells than screen typical; caspase robust z-score: higher = more caspase 3/7 activity than screen typical
# Rule for the call: 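Hits are knock-downs in viability class RV1/RV2 or caspase class CA1/CA2, excluding ones that killed cells in the no-drug cell-count arm; hits then retested with single siRNAs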
# In all, the deposit lists about 18,000 reagents; below is a part drawn at random. 450 of all reagents (2.5%) were called active. 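Single biological run; no consistent viability z cut-off exists, so the class columns, not z-scores, define the calls.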
gene,viability hit class,caspase hit class,viability robust z-score,caspase robust z-score,Outcome
OR4D9 (olfactory receptor family 4 subfamily D member 9),no change,no change,-0.45,2.33,inactive
SYCP1 (synaptonemal complex protein 1),no change,no change,1.02,1.52,inactive
KIF18A (kinesin family member 18A),no change,no change,-0.72,2.44,inactive
KLF5 (KLF transcription factor 5),no change,no change,0.26,-0.66,inactive
R3HDM2 (R3H domain containing 2),no change,no change,-0.06,0.14,inactive
CACNA2D1,no change,no change,-0.91,3.33,inactive
RAG1 (recombination activating 1),no change,no change,-0.03,1.92,inactive
KRTAP19-6 (keratin associated protein 19-6),no change,no change,-1.37,3.6,inactive
TMPRSS4 (transmembrane serine protease 4),no change,no change,-1.46,1.75,inactive
FCRLA (Fc receptor like A),no change,no change,0.45,0.37,inactive
RNF26 (ring finger protein 26),no change,CA2 (caspase activation),-2.7,14.1,active
SYTL1 (synaptotagmin like 1),no change,no change,0.84,-0.02,inactive
KCTD2 (potassium channel tetramerization domain containing 2),no change,no change,0.52,1.88,inactive
DLGAP1 (DLG associated protein 1),no change,no change,0.73,-0.34,inactive
SPR (sepiapterin reductase),no change,no change,0.87,-0.36,inactive
RCN2 (reticulocalbin 2),no change,no change,-0.5,-1.6,inactive
GPR152 (G protein-coupled receptor 152),no change,CA1 (caspase activation),-1.44,5.34,active
PPARG (peroxisome proliferator activated receptor gamma),no change,no change,-0.57,-1.11,inactive
DEFB113 (defensin beta 113),no change,no change,-0.6,-0.36,inactive
POGLUT2 (protein O-glucosyltransferase 2),no change,no change,0.2,0.84,inactive
DLEU7 (deleted in lymphocytic leukemia 7),no change,no change,-0.52,-0.16,inactive
ZYX (zyxin),no change,no change,0.65,-0.34,inactive
HABP2 (hyaluronan binding protein 2),no change,no change,-0.08,-0.26,inactive
DSCC1,no change,no change,0.36,-0.7,inactive
RFPL4AL1 (ret finger protein like 4A like 1),no change,no change,-1.48,4.1,inactive
GRIN3A (glutamate ionotropic receptor NMDA type subunit 3A),no change,no change,0.32,-0.94,inactive
RGS14 (regulator of G protein signaling 14),no change,no change,0.1,-1.19,inactive
CCL22 (C-C motif chemokine ligand 22),no change,no change,0.16,-1.21,inactive
PYDC2 (pyrin domain containing 2),no change,no change,0.33,0.18,inactive
OR2T10 (olfactory receptor family 2 subfamily T member 10),no change,no change,0.34,1.26,inactive
CDX2 (caudal type homeobox 2),no change,no change,1.44,-0.31,inactive
KYAT3 (kynurenine aminotransferase 3),no change,no change,-0.1,1.19,inactive
ZNF320 (zinc finger protein 320),no change,no change,0.3,-0.66,inactive
CHORDC1 (cysteine and histidine rich domain containing 1),no change,no change,-2.15,3.51,inactive
GRB2 (growth factor receptor bound protein 2),no change,no change,-0.68,-0.81,inactive
"ZFPM2 (zinc finger protein, FOG family member 2)",no change,no change,-0.32,0.81,inactive
DAP3 (death associated protein 3),no change,no change,-0.8,-0.58,inactive
KAT6A (lysine acetyltransferase 6A),no change,no change,0.33,0.41,inactive
DMXL2 (Dmx like 2),no change,no change,0.16,0.38,inactive

Just “caspase robust z-score”, for 5 of the entries above:
OR2T10 (olfactory receptor family 2 subfamily T member 10)	1.26
CDX2 (caudal type homeobox 2)	-0.31
KYAT3 (kynurenine aminotransferase 3)	1.19
ZNF320 (zinc finger protein 320)	-0.66
CHORDC1 (cysteine and histidine rich domain containing 1)	3.51
